No constants are given. Whether binding was seen depends on the method and setting. Some results given as binding are weak or reduced against the parent protein; the word gives no strength.
Biological target: Puromycin-sensitive aminopeptidase (human PSA for crystallization, N-terminal polyhistidine tag) (human) (UniProt P55786)
Experiment: crystal structure; PSA crystals soaked 1 h in 1 mM EDTA, 0.1 M Tris pH 8.5, 0.5 M NaCl, then 45 min in crystallization conditions plus 1 mM EDTA and 200 μM PQ peptide; 3.65 Å data set; both purified

The chains behind the UniProt entries cited, without tags or fusion partners. Residues count along the entry.
UniProt P55786, residues 46-919: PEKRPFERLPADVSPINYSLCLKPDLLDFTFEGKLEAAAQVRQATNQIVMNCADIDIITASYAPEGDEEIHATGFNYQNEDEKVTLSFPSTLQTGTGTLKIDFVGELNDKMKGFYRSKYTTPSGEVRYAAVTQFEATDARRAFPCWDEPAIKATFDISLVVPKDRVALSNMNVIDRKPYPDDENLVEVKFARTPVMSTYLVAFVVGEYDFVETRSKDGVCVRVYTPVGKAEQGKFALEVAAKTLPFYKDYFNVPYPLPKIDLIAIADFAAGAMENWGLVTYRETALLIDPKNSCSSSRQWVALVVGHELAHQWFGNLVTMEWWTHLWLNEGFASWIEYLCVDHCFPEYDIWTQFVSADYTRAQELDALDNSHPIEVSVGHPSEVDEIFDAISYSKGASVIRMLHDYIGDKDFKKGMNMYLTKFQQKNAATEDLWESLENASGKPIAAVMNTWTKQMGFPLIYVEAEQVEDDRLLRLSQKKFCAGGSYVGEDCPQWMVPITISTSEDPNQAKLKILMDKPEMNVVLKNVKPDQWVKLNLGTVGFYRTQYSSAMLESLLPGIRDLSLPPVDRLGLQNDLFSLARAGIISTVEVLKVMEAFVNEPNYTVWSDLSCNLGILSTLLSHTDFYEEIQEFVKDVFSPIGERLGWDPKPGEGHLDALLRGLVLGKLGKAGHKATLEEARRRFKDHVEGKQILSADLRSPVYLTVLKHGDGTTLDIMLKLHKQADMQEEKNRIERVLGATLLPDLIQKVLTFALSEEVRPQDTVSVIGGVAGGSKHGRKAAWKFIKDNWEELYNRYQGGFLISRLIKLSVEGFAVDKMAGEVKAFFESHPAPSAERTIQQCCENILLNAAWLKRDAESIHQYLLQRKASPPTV

B1: Polyglutamine peptide Lys2Gln15Lys2 (peptide)
peptide: KKQQQQQQQQQQQQQQQKK
  binding: binds
